Source: doi:10.1371/journal.pone.0140310, primary screening data, rounded.

Compounds and concentrations:
vatalanib: Clc1ccc(Nc2nnc(Cc3ccncc3)c3ccccc23)cc1 at 10 µM
dasatinib: Cc1nc(Nc2ncc(C(=O)Nc3c(C)cccc3Cl)s2)cc(N2CCN(CCO)CC2)n1 at 0.02 µM
darinaparsin: C[As](C)SC[C@H](NC(=O)CC[C@H](N)C(=O)O)C(=O)NCC(=O)O at 2 µM
NVP-BEZ235: Cn1c(=O)n(-c2ccc(C(C)(C)C#N)cc2)c2c3cc(-c4cnc5ccccc5c4)ccc3ncc21 at 0.02 µM
etoposide: COc1cc([C@@H]2c3cc4c(cc3[C@@H](O[C@@H]3O[C@@H]5CO[C@@H](C)O[C@H]5[C@H](O)[C@H]3O)[C@H]3COC(=O)[C@H]23)OCO4)cc(OC)c1O at 0.1 µM
pazopanib: Cc1ccc(Nc2nccc(N(C)c3ccc4c(C)n(C)nc4c3)n2)cc1S(N)(=O)=O at 2 µM
PLX4720: CCCS(=O)(=O)Nc1ccc(F)c(C(=O)c2c[nH]c3ncc(Cl)cc23)c1F at 0.4 µM
JZL184: O=C(Oc1ccc([N+](=O)[O-])cc1)N1CCC(C(O)(c2ccc3c(c2)OCO3)c2ccc3c(c2)OCO3)CC1 at 5 µM
everolimus: CO[C@H]1C[C@@H]2CC[C@@H](C)[C@@](O)(O2)C(=O)C(=O)N2CCCC[C@H]2C(=O)O[C@H]([C@H](C)C[C@@H]2CC[C@@H](OCCO)[C@H](OC)C2)CC(=O)[C@H](C)/C=C(\C)[C@@H](O)[C@@H](OC)C(=O)[C@H](C)C[C@H](C)/C=C/C=C/C=C/1C at 0.1 µM
vismodegib: CS(=O)(=O)c1ccc(C(=O)Nc2ccc(Cl)c(-c3ccccn3)c2)c(Cl)c1 at 5 µM

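The test systems are human melanoma cell lines, treated with two drugs together for 72 h and then stained and imaged. Values are the share of nuclei positive for cleaved PARP as a percentage of the same share in the DMSO control: 100 is the control level, higher means more apoptosis. Concentrations were fixed for each drug; these are the higher of two levels. No replicate spread is given; individual values may be noisy. Basal and induced levels differ widely between cell lines.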 An unselected part of the screen is shown.

Combination	SK-MEL-2
everolimus and vismodegib	163
JZL184 and pazopanib	81.8
dasatinib and darinaparsin	55.0
NVP-BEZ235 and pazopanib	122
PLX4720 and everolimus	169
JZL184 and etoposide	142
pazopanib and dasatinib	126
JZL184 and dasatinib	177
dasatinib and vismodegib	95.1
vatalanib and NVP-BEZ235	241
etoposide and vismodegib	205
darinaparsin and vatalanib	60.0
PLX4720 and JZL184	45.0
etoposide and darinaparsin	182
etoposide and vatalanib	159
vatalanib and pazopanib	66.5
NVP-BEZ235 and darinaparsin	206
everolimus and pazopanib	48.8
PLX4720 and vismodegib	187
everolimus and darinaparsin	131
dasatinib and NVP-BEZ235	56.2
everolimus and vatalanib	146
etoposide and everolimus	85.9
dasatinib and etoposide	130
vismodegib and darinaparsin	106
JZL184 and vatalanib	122
everolimus and NVP-BEZ235	376
JZL184 and darinaparsin	102
PLX4720 and etoposide	69.7
PLX4720 and pazopanib	87.8
vismodegib and pazopanib	23.2
darinaparsin and PLX4720	125
etoposide and pazopanib	142
JZL184 and NVP-BEZ235	143
vismodegib and JZL184	73.6
PLX4720 and vatalanib	55.8
NVP-BEZ235 and PLX4720	113
vismodegib and NVP-BEZ235	97.5

Once more, the final 4:

| Combination | SK-MEL-2 |
|---|---|
| vismodegib and JZL184 | 73.6 |
| PLX4720 and vatalanib | 55.8 |
| NVP-BEZ235 and PLX4720 | 113 |
| vismodegib and NVP-BEZ235 | 97.5 |